Drawing on PubChem BioAssay AID445 (National Center for Advancing Translational Sciences (NCATS), 2006), this text covers AC50 for 38 compounds.

This is one part of the list. The main result of the screen is listed elsewhere. These columns were measured beside it and carry no call. The list favours compounds with an active or inconclusive main result. Words in brackets tell the shape of the fitted curve; partial curves, single points and poor fits give uncertain potencies.

The nature of the experiment: IkB Signaling. The conditions noted are these: ABC-DLBCL IkBa-CBG/CBR dual luciferase ratio (green luciferase fused to IkBa over red control in OCI-Ly3 lymphoma cells), 4 h; measured here: control luc red channel unless noted. The method, boiled down: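 In this assay, an IκBα–CBG68 fusion accumulates when IKK-driven degradation is blocked; native CBR normalizes for cell number. OCI-Ly3 cells were treated 4 h with compound and doxycycline, then green and red light read after Chroma-Glo addition.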
As for `COc1cc(NC(=O)c2nc3ccccc3n(C)c2=O)cc(OC)c1OC`, the concentration at half-maximal activity (AC50) is 7.94 µM [falling, full curve]. The same measure for `OC1C=CSc2nc3ccccc3n21` (stereo not drawn): 25.1 µM [rising, partial curve] [measured here: IkB-luc green channel]; for `Cc1ccc(CCNC(=O)CCS(=O)(=O)c2cc3c(cc2Cl)NC(=O)CO3)cc1`: 25.1 µM [falling, partial curve, poor fit]. For the compound `O=C(OCc1cc(=O)n2nc(C3CC3)sc2n1)c1ccccc1Cl`, the AC50 was 15.8 µM [falling, partial curve]. Consider `CC(=O)c1cccc(NC(=O)c2cc(C)nc3c2c(C)nn3-c2cccc(Cl)c2C)c1`, for which the AC50 was 5.01 µM [falling, partial curve, poor fit]. The value for `COC(=O)c1c(-c2ccc(Cl)cc2)noc1N1CCN(c2ccc(F)cc2)CC1` was 5.01 µM [falling, full curve]. On to `Cc1ccc(-c2nc(-c3cc4cccc(OCc5ccccc5F)c4oc3=O)no2)cc1`, for which the AC50 is 25.1 µM [falling, single point]. Consider `N#C/C(=C(/O)CSc1nnc(Cc2cccs2)n1C1CCCCC1)c1nc2ccccc2[nH]1`, for which the AC50 was 10 µM [falling, partial curve]. As to `Cc1ccc(NC(=O)Cn2c(=O)n(Cc3ccc(C(=O)NCc4ccc5c(c4)OCO5)cc3)c(=O)c3ccccc32)cc1`, the AC50 is 0.00631 µM [falling, full curve, poor fit]. The same measure for `CC(C)c1cc(C(=O)NCc2ccccc2)no1`: 39.8 µM [falling, single point]; for `CCOc1ccc(CNC(=O)CCS(=O)(=O)c2ccc3c(c2)oc(=O)n3C)cc1`: 25.1 µM [falling, partial curve, poor fit].

For the compound `COC(=O)c1ccc(NC(=O)C(=O)NCC(c2cccnc2)N2CCc3ccccc32)cc1` (stereo not drawn), the AC50 was 25.1 µM [falling, single point].

For `Cc1c(NC(=O)c2sc3ccccc3c2Cl)cccc1-c1nc2ccccc2o1`, the AC50 is 1 µM [falling, partial curve]. As for `Cc1c(Cl)cccc1NC(=O)Cn1nnc(-c2nc(-c3ccccc3)no2)c1N`, the AC50 is 15.8 µM [falling, partial curve, poor fit]. For the compound `C[C@@H]1C[C@@H]2[C@H]3CCC4=CC(=O)C=C[C@]4(C)[C@]3(F)[C@@H](O)C[C@]2(C)[C@@]1(O)C(=O)CO`, the AC50 is 2.51 nM [rising, full curve, poor fit] [measured here: IkB-luc green channel]. For the compound `O=C(NC1CCCC1)c1c[nH]c2ccc(F)cc2c1=O`, the AC50 was 3.16 µM [rising, partial curve]. For the compound `COc1ccc(CNc2nc3c(-c4cccc(F)c4)nnn3c3ccccc23)cc1`, the AC50 was 2.51 µM [rising, partial curve].

For `COc1ccc(N(C)C(=O)c2cc3c(s2)-c2c(C)cccc2OC3)c(OC)c1`, the AC50 is 39.8 µM [falling, single point].

Consider `COc1ccc(-c2c(C)nn3c(C(F)(F)F)cc(-c4ccccc4)nc23)cc1OC`, for which the AC50 is 0.398 µM [rising, full curve].

`CCc1nc(SCC(=O)N2CCN(C(=O)c3ccco3)CC2)c2c3c(sc2n1)CCCC3`: the AC50 was 25.1 µM [falling, partial curve].

As for `Cc1ccc(NC(=O)c2c(C)oc3c2C2=NCCN2C=N3)cc1F`, the AC50 is 5.01 µM [falling, single point]. Regarding `CCOC(=O)C1CCN(S(=O)(=O)c2cccc(-c3cn4ccccc4n3)c2)CC1`, the AC50 was 15.8 µM [falling, partial curve]. The value for `COC(=O)c1cc2sccc2n1CC(=O)Nc1ccc(OC)c(OC)c1` was 2.51 µM [rising, full curve]. Consider `CCc1ccc(-n2c(=O)c3sc4ccccc4c3n(CC(=O)NCc3ccccc3)c2=O)cc1`, for which the AC50 is 3.16 µM [rising, full curve].

As for `COc1ccc(C2=C(N3CCN(c4cc(C)ccc4C)CC3)c3ccccc3C2=O)cc1`, the half-maximal activity concentration (AC50) was 31.6 µM [falling, partial curve]. As to `Cc1c(Cl)cccc1NC(c1ccc(F)cc1)c1nnc(-c2ccccc2)o1` (stereo not drawn), the AC50 was 6.31 µM [falling, full curve]. The same measure for `COc1ccc(OC)c(-n2c(N)c(C(=O)NCC3CCCO3)c3nc4ccccc4nc32)c1` (stereo not drawn): 15.8 µM [falling, partial curve]; for `CCOC(=O)c1cc(S(=O)(=O)N2CCN(c3cccc(C)c3C)CC2)[nH]n1`: 20 µM [falling, partial curve]; for `NC(=O)c1c(C(F)(F)F)cc(-c2ccccc2)nc1NCCO`: 15.8 µM [falling, partial curve].

`Cc1ccc(NC(=O)Nc2cn(CC(C)C)c(=O)c3ccccc23)cc1N(C)C`: the AC50 was 39.8 µM [falling, single point]. The value for `COc1ccc(-c2cc(C(C)=O)c(C)n2CCC(=O)NCc2ccc(C)cc2)cc1` was 20 µM [falling, single point]. The same measure for `COc1cccc(CNC(=O)C2CCN(C(=O)c3cnn(-c4ccccc4)c3-n3cccc3)CC2)c1`: 12.6 µM [falling, partial curve]; for `COc1ccc(Nc2nnc(-c3ccc(C)c(S(=O)(=O)NCCO)c3)c3ccccc23)cc1C(N)=O`: 10 µM [falling, partial curve]. The value for `COc1ccccc1OCC(=O)N1CCC(c2nc3ccccc3o2)CC1` was 31.6 µM [falling, single point].

For the compound `CCCS(=O)(=O)c1ncc(Cl)c(C(=O)Nc2c(C(=O)Nc3ccccc3)oc3ccccc23)n1`, the AC50 was 10 µM [falling, partial curve]. `COc1ccc(CCNC(=O)c2cn(C)c3ccc(S(=O)(=O)N4CCOCC4)cc3c2=O)cc1OC`: the AC50 was 1 µM [rising, full curve].

`Cc1ccccc1OCCCCn1c(CCNC(=O)C(C)(C)C)nc2ccccc21`: the AC50 is 20 µM [falling, partial curve]. `COc1ccc(OC)c(CNC(=O)c2ccc(NC(=O)c3nsc4ccccc34)cc2)c1`: the half-maximal activity concentration (AC50) is 0.2 µM [falling, full curve].
